# The whole screen tested about 320,000 compounds, of which about 740 (0.23%) were called active. The shares of active, inactive and inconclusive entries below differ from those in the screen. The call rests on the fitted dose curve; in most records, active means well fitted activation curve with a large enough effect; inconclusive means small, poorly fitted or top-dose-only effect; inactive means no such curve, though single readings can be large or run the other way. Potencies of inconclusive entries are doubtful fits and often do not repeat.
# Assay: qHTS Assay for Small Molecule Inhibitors of Mitochondrial Division or Activators of Mitochondrial Fusion; further: nearly all actives have a fitted effect of over 45% in size;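 on growth rescue (activation): temperature-sensitive fusion mutants such as fzo1-1 at 37 °C on non-fermentable ethanol glycerol medium; % of control where 0% means no effect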
# Settings: S. cerevisiae fusion-defective mutant growth rescue, CellTiterGlo 48 h; growth rescue (activation): at 46.1 µM (top of the series) unless noted
# Procedure, shortened: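 Luminescent cell viability in 1536-well qHTS format served as the measure of rescued growth in ts fusion-mutant S. cerevisiae cultured on non-fermentable YPEG for 48 hours at 37C.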
# Potency means the concentration at half of the fitted maximal effect.
Compound,Potency,growth rescue (activation)
O=C1CSC(c2cn(-c3ccccc3)nc2-c2cccs2)N1CC1CCCO1 (stereo not given),"inconclusive: 15.8 µM [activator, single point]",
O=C(c1cc2c(s1)-c1ccccc1OC2)N1CCN(c2ccccc2)CC1,"inconclusive: 0.891 µM [activator, full curve]",
O=C(NCCc1ccc(Cl)cc1)C1CCCN(S(=O)(=O)c2cnc[nH]2)C1 (stereo not given),"inconclusive: 0.316 µM [activator, full curve, poor fit]",
COc1cccc(OCC(O)CN2CCC(CN3C(=O)c4cccc5cccc(c45)C3=O)CC2)c1 (stereo not given),"inconclusive: 35.5 µM [activator, single point]",
CC1(C)Cc2c(sc3c2c(=N)n(Cc2ccco2)c(=O)n3Cc2ccc(Cl)cc2)CO1,"inconclusive: 28.2 µM [activator, partial curve]",
CC(=O)Nc1ccc(Nc2cc(C)nc3c(-c4ccccc4)c(C)nn23)cc1,"inconclusive: 11.2 µM [activator, partial curve]",
O=C(O)c1ccc(NCCc2ccc(Cl)cc2)c([N+](=O)[O-])c1,"inconclusive: 6.31 µM [activator, single point]",
C=C(C)CNC(=S)N/N=C(\C)c1cccc(NC(C)=O)c1,,inactive: 11.8%
COC(=O)C1=C(C)NC(C)=C(C(=O)OC)C1c1ccccc1[N+](=O)[O-],"inconclusive: 14.6 µM [activator, single point]",
Cc1[nH]c2ccc(C(=O)NC3CCCC3)cc2c1C,,inactive: 4.65%
O=C(Nc1cc(C(F)(F)F)ccc1N1CCOCC1)C1=NN(c2ccccc2)C(=O)CC1,"inconclusive: 11.2 µM [activator, partial curve]",
Cc1cc(C)c(-c2c(O)c3cnn(-c4ccccc4)c3[nH]c2=O)c(C)c1,"inconclusive: 7.08 µM [activator, partial curve]",
COc1ccc(C(=O)N/N=C/c2ccccc2OC(=O)c2ccccc2)cc1,,inactive: 3.22%
COc1ccc(C)cc1NC(=O)c1nnn(Cc2cccc(C(F)(F)F)c2)c1N,"inconclusive: 15.8 µM [activator, single point]",
CC(/C=N/NC(=O)c1cccnc1)=C\c1ccccc1,"inconclusive: 2.51 µM [activator, partial curve]",
CCOC(=O)CCc1c(C)c(C#N)c2[nH]c3ccccc3n2c1=O,"inconclusive: 11.2 µM [activator, partial curve]",
C[C@@H]1CC[C@H]2C(=O)N3[C@@H](CC[C@@H](C)[C@@H]3c3ccc(Br)cc3)C(=O)N2[C@H]1c1ccc(Br)cc1,"inconclusive: 12.6 µM [activator, partial curve]",
Cn1c(=O)c2c(nc(N/N=C/c3cccs3)n2Cc2ccc(Br)cc2)n(C)c1=O,"inconclusive: 2 µM [activator, full curve]",
CC(=O)c1c(N)[nH]c(-c2ccccc2)nc1=S,"inconclusive: 35.5 µM [activator, single point]",
O=C(c1cccc(S(=O)(=O)N2CCc3ccccc3C2)c1)N1CCN(c2ccccc2)CC1,"inconclusive: 20 µM [activator, single point]",

# 3 entries out of the list, arranged by molar mass, falling.
Compound,Potency,growth rescue (activation)
O=C1CSC(c2cn(-c3ccccc3)nc2-c2cccs2)N1CC1CCCO1 (stereo not given),"inconclusive: 15.8 µM [activator, single point]",
O=C(NCCc1ccc(Cl)cc1)C1CCCN(S(=O)(=O)c2cnc[nH]2)C1 (stereo not given),"inconclusive: 0.316 µM [activator, full curve, poor fit]",
COC(=O)C1=C(C)NC(C)=C(C(=O)OC)C1c1ccccc1[N+](=O)[O-],"inconclusive: 14.6 µM [activator, single point]",

# (further entries)

Compound,Potency,growth rescue (activation)
O=C(c1ccc(COc2ccc(Cl)cc2)cc1)N1CCCCC1,,inactive: 3.3%
O=C1N=C(N2CCN(c3cccc4ccccc34)CC2)S/C1=C/c1cccs1,"inconclusive: 7.94 µM [activator, partial curve]",
C[n+]1ccccc1/C=C/c1ccc([N+](=O)[O-])cc1,"inconclusive: 12.6 µM [activator, partial curve]",
CC(=O)/C=C\c1cn(-c2ncc(C(F)(F)F)cc2Cl)c2ccccc12,"inconclusive: 35.5 µM [activator, single point]",
COc1ccc(C(=O)/C=C/C(=O)N(Cc2ccccc2OC)C(C(=O)NC2CCCCC2)c2ccncc2)c(O)c1 (stereo not given),"inconclusive: 22.4 µM [activator, single point]",
O=C(c1ccc(S(=O)(=O)c2cccc(Cl)c2)c([N+](=O)[O-])c1)N1CCN(c2ccccn2)CC1,"inconclusive: 5.01 µM [activator, single point]",
O=C(NC(=S)Nc1cccnc1)c1cccs1,,inactive: -3.23%
O=C(c1cccc(S(=O)(=O)N2CCc3ccccc32)c1)N1CCN(c2ccccc2)CC1,"inconclusive: 35.5 µM [activator, single point]",
O=C(N/N=C/c1ccccn1)c1ccc(N/N=C/c2ccccn2)cc1,"inconclusive: 5.62 µM [activator, single point]",
COCCCNC(=O)/C(C#N)=C/c1c(N2CCN(c3ccccc3)CC2)nc2ccccn2c1=O,"inconclusive: 12.6 µM [activator, partial curve]",
O=C(Nc1ccccc1)c1cc([N+](=O)[O-])ccc1NC1CCCCC1,"inconclusive: 5.62 µM [activator, partial curve]",
CCOC(CNC(=O)c1cccn2c(=O)c3c(C)c(C)sc3nc12)OCC,"inconclusive: 0.562 µM [activator, full curve, poor fit]",
Cc1onc(-c2ccccc2Cl)c1C(=O)Nc1ccc(-n2nncc2-c2ccco2)cc1,,inactive: -2.26%
N/C(=N\OC(=O)COc1ccc(Br)cc1Cl)c1ccccn1,"inconclusive: 28.2 µM [activator, single point]",
CC(C)CC(=O)Nc1cccc(-c2nc3ccccc3[nH]2)c1,,inactive: -1.94%
COc1cccc(Cn2cnc3c(NS(=O)(=O)c4cc(Cl)ccc4Cl)c(C)c(C)cc32)c1,"inconclusive: 25.1 µM [activator, single point]",
CCOC(=O)n1c(=O)n(C)c2ccc(Br)cc21,"inconclusive: 20 µM [activator, partial curve]",
Cc1csc(NC(=O)c2cc(-c3ccccc3)nc3ccccc23)n1,"inconclusive: 31.6 µM [activator, single point]",
C=C(C)COc1ccc(-c2nc(N)ncc2-c2ccc(OC)c(OC)c2)c(O)c1,"inconclusive: 11.2 µM [activator, partial curve]",
Cc1cc2c(cc1Cl)N(C(=O)Nc1ccc(Oc3cccnc3C)nc1)CC2,"inconclusive: 3.66 µM [activator, partial curve]",

# Source: PubChem BioAssay AID485298 (National Center for Advancing Translational Sciences (NCATS), 2010)
